Measurements published in patent US20160130340A1 (ALDERBIO, published 2016).
These are yes or no findings as the source states them, for the method shown. Some entries that bind do so weakly or less than the wild type.

Sequences of proteins named here, by UniProt entry; tags and fusion partners are left off. A change or cut given only in a name is not applied to a line headed by its entry.
UniProt P05231: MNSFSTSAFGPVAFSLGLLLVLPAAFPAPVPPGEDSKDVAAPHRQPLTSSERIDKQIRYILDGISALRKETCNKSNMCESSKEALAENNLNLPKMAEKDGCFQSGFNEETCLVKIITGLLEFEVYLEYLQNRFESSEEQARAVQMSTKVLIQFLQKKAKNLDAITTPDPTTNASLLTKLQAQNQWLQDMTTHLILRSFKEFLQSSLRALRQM

Molecular target: Human IL-6 (human, UniProt P05231 30-212)
Experiment: Octet bio-layer interferometry; antibody captured on anti-human IgG Fc sensor, then IL-6, then soluble IL-6R1, then gp130 in the presence of IL-6R1; blocked ligands: IL-6R1 and gp130
Method: To determine the antibody mechanism of action, mechanistic studies were performed using bio-layer interferometry with an Octet QK instrument (ForteBio; Menlo Park, Calif.). Studies were performed in two different configurations. […] Binding is monitored as an increase in signal.
In the second orientation, the antibody was bound to a biosensor coated with an anti-human IgG1 Fc-specific reagent (ForteBio part number 18-5001). […] All studies were performed in a 200 μL final volume, at 30° C. and 1000 rpm. For these studies, all proteins were diluted using ForteBio's sample diluent buffer (part number 18-5028).

- binding: binds
B1: Ab7 (antibody, V domains shown)
VH: QSLEESGGRLVTPGTPLTLTCTASGFSLSNYYMTWVRQAPGKGLEWIGMIYGSDETAYANWAIGRFTISKTSTTVDLKMTSLTAADTATYFCARDDSSDWDAKFNLWGQGTLVTVSS
VL: AYDMTQTPASVSAAVGGTVTIKCQASQSINNELSWYQQKSGQRPKLLIYRASTLASGVSSRFKGSGSGTEFTLTISDLECADAATYYCQQGYSLRNIDNAFGGGTEVVVKR
